Results deposited as PubChem BioAssay AID686943 (Drosophila RNAi Screening Center, 2013).
The screen tested about 23,000 reagents; this is an unselected part of those with a known target gene and a result. 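Extra replicates exist only for a retested subset of genes; insulin dose and duration not given; both raised and lowered dpERK matter.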 Reagent sequences are not shown. Not given: the amount of reagent, the time to read-out.

Screen: 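Knockdowns that increase or decrease active ERK after insulin receptor stimulation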 (primary screen)
Cell system: Drosophila S2R+ haemocyte-like cells expressing YFP-tagged ERK (Rolled)
Reagents: long dsRNA against Drosophila genes
Treatment: insulin stimulation versus unstimulated cells; dose and duration not given
Read-out: 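Antibody staining for doubly phosphorylated ERK divided by ERK-YFP signal, as plate z-scores, in insulin-treated and untreated cells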
Scale: replicate 1, z-score of dpERK with insulin and replicate 2, z-score of dpERK with insulin: higher = more active ERK per ERK-YFP after insulin; replicate 1, z-score of dpERK under basal conditions: higher = more basal active ERK per ERK-YFP; replicate 1, z-score of ERK-YFP with insulin: higher = more YFP-tagged ERK signal

predicted target | dsRNA | replicate 1, z-score of dpERK with insulin | replicate 2, z-score of dpERK with insulin | replicate 1, z-score of dpERK under basal conditions | replicate 1, z-score of ERK-YFP with insulin
CG12699 | DRSC06162 | 0.2 | 1.78 | 0.53 | -0.67
pie (pineapple eye) | DRSC03590 | -0.63 | 0.69 | 0.3 | -0.22
IFT43 (Intraflagellar transport 43) | DRSC02892 | -0.25 | -0.62 | 0.17 | 0.77
spg (sponge) | DRSC14373 | -0.11 | 0.05 | 0.23 | 0.34
spg (sponge) | DRSC14881 | -0.38 | 0.05 | 0.33 | 0.3
CG9568 | DRSC03265 | -0.44 | -1.7 | -0.47 | 0.59
CG14657 | DRSC12219 | 0.7 | 0.78 | -0.11 | -0.72
CG14657 | DRSC12243 | -0.45 | 0.34 | -0.75 | -0.09
Srp54 (Splicing regulatory protein 54) | DRSC03442 | -1.9 | -0.75 | -2.16 | 1.55
CG8586 | DRSC07218 | -0.06 | -0.17 | 0.32 | 0.29
Bsg (Basigin) | DRSC01010 | -0.09 | -2.29 | -2.25 | 0.45
Bsg (Basigin) | DRSC01011 | 2 | 1.68 | 2.63 | -1.21
CG32642 | DRSC18959 | 1.4 | 1.04 | 2.26 | -0.34
CG14488 | DRSC06460 | -0.27 | 0.78 | -3.36 | 0.64
lqf (liquid facets) | DRSC11363 | 0.14 | 0.27 | 0.35 | 0.01
Atx-1 (Ataxin 1) | DRSC18365 | -0.01 | 0.33 | 0.77 | 0.25
CG30338 | DRSC05166 | -0.11 | -0.11 | 0.82 | -0.21
CG7824 | DRSC16321 | -0.32 | -0.17 | 0.56 | 1.04
Bfc (Booster for Crq) | DRSC08623 | 1.03 | 0.44 | -0.03 | 0.1
Cals (Calsyntenin) | DRSC17196 | 1.82 | 0.3 | -0.5 | 0.18
Cals (Calsyntenin) | DRSC21661 | -0.53 | 0 | 0.16 | 1.5
Alp1 (Alkaline phosphatase 1) | DRSC11781 | 0.31 | -0.14 | 1.1 | -0.02
CG12395 | DRSC19453 | -0.22 | 0.09 | 0.66 | -0.25
